The record followed here is the supplement of paper PMC12819154, “High-throughput peptide-centric local stability assay extends protein–ligand identification to membrane proteins, tissues and bacteria” (Nature Structural & Molecular Biology, 2025).

Chains of the proteins cited; added tags and fusions are not shown. Lines headed by an entry give the natural chain unless they say otherwise; changes in a name come on top.
UniProt Q15843, whole entry: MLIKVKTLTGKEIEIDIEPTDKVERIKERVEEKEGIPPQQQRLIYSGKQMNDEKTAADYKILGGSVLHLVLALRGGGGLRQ
UniProt Q15034: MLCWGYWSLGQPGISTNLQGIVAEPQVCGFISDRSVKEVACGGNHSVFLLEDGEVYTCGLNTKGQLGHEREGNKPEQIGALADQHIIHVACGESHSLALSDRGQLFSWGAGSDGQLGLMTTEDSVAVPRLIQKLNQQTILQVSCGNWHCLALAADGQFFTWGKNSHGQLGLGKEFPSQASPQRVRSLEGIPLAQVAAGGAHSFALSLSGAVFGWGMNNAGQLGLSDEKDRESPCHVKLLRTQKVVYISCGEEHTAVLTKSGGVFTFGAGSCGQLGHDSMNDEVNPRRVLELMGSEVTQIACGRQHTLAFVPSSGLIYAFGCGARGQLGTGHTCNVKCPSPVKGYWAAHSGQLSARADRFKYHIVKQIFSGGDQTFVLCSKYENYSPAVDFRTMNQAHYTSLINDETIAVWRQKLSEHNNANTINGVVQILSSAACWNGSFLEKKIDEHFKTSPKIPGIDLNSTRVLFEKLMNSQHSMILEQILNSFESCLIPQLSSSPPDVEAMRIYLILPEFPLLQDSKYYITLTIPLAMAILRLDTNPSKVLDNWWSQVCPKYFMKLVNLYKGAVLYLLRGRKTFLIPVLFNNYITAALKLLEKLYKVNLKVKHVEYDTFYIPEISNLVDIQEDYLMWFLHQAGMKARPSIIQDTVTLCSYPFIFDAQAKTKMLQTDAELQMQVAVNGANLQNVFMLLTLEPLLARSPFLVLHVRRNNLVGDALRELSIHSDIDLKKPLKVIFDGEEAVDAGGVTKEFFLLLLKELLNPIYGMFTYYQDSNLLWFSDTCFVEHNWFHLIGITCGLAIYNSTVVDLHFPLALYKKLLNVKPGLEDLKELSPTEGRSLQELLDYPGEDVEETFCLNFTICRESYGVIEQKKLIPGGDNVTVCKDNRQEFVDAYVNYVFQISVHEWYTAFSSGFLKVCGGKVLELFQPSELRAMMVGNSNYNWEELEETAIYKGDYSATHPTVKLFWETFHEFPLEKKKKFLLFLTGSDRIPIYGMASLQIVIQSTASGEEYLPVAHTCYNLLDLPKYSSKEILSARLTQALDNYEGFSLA
UniProt Q15596: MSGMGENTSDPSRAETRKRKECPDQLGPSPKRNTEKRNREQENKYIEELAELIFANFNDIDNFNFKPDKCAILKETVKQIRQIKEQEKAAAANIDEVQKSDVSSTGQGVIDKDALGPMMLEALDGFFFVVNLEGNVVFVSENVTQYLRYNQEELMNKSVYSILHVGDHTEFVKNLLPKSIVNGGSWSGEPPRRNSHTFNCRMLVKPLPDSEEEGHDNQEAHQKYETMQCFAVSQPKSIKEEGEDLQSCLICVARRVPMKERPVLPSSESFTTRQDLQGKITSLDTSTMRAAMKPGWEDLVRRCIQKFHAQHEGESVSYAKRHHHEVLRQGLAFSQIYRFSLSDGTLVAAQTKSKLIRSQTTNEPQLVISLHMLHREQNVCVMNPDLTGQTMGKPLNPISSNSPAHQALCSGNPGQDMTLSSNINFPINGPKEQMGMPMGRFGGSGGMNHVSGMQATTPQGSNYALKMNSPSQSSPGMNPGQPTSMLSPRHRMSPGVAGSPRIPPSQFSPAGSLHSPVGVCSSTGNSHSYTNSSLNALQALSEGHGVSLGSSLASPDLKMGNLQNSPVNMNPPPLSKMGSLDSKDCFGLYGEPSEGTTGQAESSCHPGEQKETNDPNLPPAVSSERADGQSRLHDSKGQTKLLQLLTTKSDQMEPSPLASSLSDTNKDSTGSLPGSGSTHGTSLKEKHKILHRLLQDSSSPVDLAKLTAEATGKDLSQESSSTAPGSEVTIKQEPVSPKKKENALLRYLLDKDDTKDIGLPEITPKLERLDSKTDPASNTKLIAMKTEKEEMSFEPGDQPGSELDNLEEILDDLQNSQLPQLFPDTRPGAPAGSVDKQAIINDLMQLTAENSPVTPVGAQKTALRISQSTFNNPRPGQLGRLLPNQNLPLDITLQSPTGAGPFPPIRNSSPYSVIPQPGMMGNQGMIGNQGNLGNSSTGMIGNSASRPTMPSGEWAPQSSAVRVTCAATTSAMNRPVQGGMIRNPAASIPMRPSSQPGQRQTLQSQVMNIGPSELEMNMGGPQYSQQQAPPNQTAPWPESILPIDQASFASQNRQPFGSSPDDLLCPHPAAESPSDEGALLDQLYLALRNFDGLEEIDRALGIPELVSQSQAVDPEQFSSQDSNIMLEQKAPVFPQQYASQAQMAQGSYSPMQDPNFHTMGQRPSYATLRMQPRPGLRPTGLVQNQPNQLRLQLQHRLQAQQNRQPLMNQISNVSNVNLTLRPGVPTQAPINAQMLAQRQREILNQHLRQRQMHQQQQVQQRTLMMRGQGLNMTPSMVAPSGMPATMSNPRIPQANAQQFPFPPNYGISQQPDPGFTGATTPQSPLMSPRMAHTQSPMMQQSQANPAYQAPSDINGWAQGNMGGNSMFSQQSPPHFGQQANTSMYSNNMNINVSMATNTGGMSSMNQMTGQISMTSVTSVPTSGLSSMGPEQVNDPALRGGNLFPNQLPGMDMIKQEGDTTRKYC
UniProt Q15811: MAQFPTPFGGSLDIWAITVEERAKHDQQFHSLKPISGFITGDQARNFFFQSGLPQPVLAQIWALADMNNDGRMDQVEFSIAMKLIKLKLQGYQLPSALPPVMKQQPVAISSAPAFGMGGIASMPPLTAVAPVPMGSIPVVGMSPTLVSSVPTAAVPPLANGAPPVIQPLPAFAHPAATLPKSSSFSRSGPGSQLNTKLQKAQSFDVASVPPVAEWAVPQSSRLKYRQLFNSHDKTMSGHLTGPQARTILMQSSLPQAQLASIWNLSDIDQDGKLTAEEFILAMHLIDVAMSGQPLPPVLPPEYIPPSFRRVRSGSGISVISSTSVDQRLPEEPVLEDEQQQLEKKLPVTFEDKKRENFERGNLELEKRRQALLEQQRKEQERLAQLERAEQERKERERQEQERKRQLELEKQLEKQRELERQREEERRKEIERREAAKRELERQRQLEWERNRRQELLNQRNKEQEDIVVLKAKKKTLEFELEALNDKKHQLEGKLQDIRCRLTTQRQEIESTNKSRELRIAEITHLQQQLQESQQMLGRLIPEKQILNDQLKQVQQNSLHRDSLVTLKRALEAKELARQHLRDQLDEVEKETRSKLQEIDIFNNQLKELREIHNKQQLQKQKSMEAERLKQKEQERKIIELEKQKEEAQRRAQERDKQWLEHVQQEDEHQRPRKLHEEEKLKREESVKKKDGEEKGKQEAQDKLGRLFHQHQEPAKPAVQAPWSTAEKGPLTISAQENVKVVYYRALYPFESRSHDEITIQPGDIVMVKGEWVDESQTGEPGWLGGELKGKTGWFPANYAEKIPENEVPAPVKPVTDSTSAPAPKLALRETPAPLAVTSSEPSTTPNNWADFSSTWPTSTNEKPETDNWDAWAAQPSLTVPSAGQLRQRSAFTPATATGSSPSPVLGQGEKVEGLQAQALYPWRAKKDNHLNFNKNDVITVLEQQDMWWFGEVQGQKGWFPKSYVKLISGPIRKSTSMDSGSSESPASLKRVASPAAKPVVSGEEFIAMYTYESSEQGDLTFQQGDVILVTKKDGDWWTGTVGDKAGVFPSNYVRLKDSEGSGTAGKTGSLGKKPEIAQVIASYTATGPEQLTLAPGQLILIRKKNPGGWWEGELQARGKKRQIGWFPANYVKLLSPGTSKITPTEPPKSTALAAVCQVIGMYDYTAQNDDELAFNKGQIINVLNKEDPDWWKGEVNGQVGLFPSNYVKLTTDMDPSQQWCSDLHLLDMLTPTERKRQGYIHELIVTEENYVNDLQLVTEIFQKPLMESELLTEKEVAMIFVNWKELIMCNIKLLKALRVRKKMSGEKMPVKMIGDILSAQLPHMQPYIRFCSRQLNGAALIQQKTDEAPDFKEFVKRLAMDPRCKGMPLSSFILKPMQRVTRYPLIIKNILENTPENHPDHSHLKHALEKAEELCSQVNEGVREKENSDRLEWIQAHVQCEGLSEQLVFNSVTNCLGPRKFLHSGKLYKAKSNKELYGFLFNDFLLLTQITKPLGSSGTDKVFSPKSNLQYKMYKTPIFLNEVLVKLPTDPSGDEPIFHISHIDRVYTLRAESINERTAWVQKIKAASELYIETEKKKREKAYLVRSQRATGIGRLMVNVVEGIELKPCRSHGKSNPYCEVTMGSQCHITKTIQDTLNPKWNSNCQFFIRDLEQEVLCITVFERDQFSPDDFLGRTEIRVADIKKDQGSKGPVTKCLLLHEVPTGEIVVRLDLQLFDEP
UniProt Q16795, whole entry: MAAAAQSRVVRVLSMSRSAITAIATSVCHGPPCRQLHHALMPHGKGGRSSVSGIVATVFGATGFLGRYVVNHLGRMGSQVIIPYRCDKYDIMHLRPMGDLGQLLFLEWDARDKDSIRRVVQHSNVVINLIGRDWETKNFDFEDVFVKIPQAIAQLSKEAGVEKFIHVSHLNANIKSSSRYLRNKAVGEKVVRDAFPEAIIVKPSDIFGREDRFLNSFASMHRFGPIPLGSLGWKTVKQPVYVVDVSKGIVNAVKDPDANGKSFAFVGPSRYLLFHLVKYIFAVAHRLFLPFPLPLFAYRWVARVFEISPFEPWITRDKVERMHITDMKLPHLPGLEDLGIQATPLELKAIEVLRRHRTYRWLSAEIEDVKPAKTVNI
UniProt Q15723: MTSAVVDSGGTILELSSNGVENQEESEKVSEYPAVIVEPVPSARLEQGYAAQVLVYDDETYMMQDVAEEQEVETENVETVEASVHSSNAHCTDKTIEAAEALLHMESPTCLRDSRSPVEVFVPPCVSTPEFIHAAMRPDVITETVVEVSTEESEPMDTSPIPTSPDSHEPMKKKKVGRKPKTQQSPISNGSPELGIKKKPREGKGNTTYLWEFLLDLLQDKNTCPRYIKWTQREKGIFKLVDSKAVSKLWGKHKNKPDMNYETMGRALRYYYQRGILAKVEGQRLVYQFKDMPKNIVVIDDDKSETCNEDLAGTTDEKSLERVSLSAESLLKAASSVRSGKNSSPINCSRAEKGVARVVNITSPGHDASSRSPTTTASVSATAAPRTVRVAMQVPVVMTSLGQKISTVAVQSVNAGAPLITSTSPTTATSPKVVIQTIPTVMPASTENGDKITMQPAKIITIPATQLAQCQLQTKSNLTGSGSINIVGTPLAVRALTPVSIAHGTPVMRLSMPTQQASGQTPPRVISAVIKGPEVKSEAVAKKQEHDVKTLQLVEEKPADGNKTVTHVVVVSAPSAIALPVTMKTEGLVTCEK
UniProt Q15084: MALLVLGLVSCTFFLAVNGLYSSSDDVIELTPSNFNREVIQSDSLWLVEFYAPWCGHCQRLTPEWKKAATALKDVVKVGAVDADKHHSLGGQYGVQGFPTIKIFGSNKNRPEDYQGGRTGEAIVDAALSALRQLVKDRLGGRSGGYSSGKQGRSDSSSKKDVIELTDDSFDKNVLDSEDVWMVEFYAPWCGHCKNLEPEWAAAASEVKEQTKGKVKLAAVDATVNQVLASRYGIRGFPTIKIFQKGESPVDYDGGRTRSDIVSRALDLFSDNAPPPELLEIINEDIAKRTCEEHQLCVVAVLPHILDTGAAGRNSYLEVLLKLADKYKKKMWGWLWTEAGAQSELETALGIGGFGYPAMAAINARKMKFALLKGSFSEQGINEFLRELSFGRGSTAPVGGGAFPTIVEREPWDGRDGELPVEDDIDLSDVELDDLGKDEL
UniProt Q15814: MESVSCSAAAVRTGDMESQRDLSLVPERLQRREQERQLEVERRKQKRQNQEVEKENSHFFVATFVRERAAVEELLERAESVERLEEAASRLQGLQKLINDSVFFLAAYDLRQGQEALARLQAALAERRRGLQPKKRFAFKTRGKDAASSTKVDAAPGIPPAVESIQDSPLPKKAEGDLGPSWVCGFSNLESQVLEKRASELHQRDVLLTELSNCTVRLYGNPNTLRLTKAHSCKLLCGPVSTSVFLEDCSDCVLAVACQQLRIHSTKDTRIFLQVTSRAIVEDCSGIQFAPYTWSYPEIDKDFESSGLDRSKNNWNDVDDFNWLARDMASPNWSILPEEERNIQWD

The other results are listed elsewhere or left out. Most entries show no effect beyond the scatter of the controls.

Compound in this experiment: Cc1nc(Nc2ncc(C(=O)Nc3c(C)cccc3Cl)s2)cc(N2CCN(CCO)CC2)n1 [dasatinib]
Briefly: log2 fold change of tryptic peptide abundance, ligand vs vehicle (limited proteolysis) (log2 ratio); higher = more trypsin-susceptible (destabilized). Particulars: ligand concentration: 5 uM; sample: K562 cleared lysate.
With “NEDD8 (peptide sequence: IKERVEEK, peptide start residue: 26) (UniProt Q15843)”, the log2 fold change is -0.714.

For “HERC3 (peptide sequence: GYWAAHSGQLSAR, peptide start residue: 343) (UniProt Q15034)”, the log2 fold change was 0.0823.

In the case of “NCOA2 (peptide sequence: AAMKPGWEDLVR, peptide start residue: 290) (UniProt Q15596)”, the log2 fold change came to 0.585.

For the target “ITSN1 (peptide sequence: DKQWLEHVQQEDEHQRPR, peptide start residue: 657) (UniProt Q15811)”, the log2 fold change is -0.352.

Turning to “NDUFA9 (peptide sequence: WLSAEIEDVKPAK, peptide start residue: 361) (UniProt Q16795)”, the log2 fold change stood at 0.685.

“DPYSL2 (peptide sequence: IVLEDGTLHVTEGSGR, peptide start residue: 452) (UniProt Q16555)”: the log2 fold change was -0.283.

In the case of “ELF2 (peptide sequence: ALTPVSIAHGTPVMR, peptide start residue: 495) (UniProt Q15723)”, the log2 fold change was determined as 0.322.

On to “PDIA6 (peptide sequence: LADKYKK, peptide start residue: 323) (UniProt Q15084)”, for which the log2 fold change is -0.566.

Consider “TBCC (peptide sequence: GKDAASSTK, peptide start residue: 143) (UniProt Q15814)”, for which the log2 fold change was found to be 1.25.
